PubChem BioAssay AID1259254, NCATS, 2017

- Aim: 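Gene knock-downs that lead to re-replication, shown by excess G2 DNA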 (primary screen)
- Cells: human HCT116 colorectal cancer cells
- Reagent: single siRNA against human genes
- Time to read-out: 3 days
- Measured: 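Nuclei stained with Hoechst and imaged; cell-cycle phase assigned by DNA content; G2 share scaled per plate, non-targeting siRNA 0%, GMNN siRNA 100%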
- Scale: G2 robust z-score and G2 cells, % of GMNN control: higher = more G2 cells, more excess DNA replication
- Hit rule: 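An siRNA counts as active if its G2 robust z-score lies at least 5 MADs above the screen median; here such calls match roughly 38% of GMNN control or more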
Shown is one part, drawn at random, of about 59,000 reagents tested. About 1,550 of all reagents (2.6%) count as active. 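G2 share is only a proxy for re-replication; each gene was hit by three separate siRNAs, and active genes were retested.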 The numbers tell different reagents against one gene apart. Not all columns of the deposit are shown. The record does not give: the amount of reagent.

The first 2 records, to show the layout:
| gene symbol | reagent | G2 robust z-score | G2 cells, % of GMNN control | Outcome |
| --- | --- | --- | --- | --- |
| GPR26 (GeneID 2849) | 1 | 4.06 | 31.5 | inactive |
| GPR26 (GeneID 2849) | 2 | 1.19 | 11.4 | inactive |

The list itself, repeating the preview:
| gene symbol | reagent | G2 robust z-score | G2 cells, % of GMNN control | Outcome |
| --- | --- | --- | --- | --- |
| GPR26 (GeneID 2849) | 1 | 4.06 | 31.5 | inactive |
| GPR26 (GeneID 2849) | 2 | 1.19 | 11.4 | inactive |
| GPR26 (GeneID 2849) | 3 | -0.793 | -2.61 | inactive |
| SSPN (GeneID 8082) | 1 | 0.892 | 9.24 | inactive |
| SSPN (GeneID 8082) | 2 | 2.47 | 20.3 | inactive |
| SSPN (GeneID 8082) | 3 | 0.128 | 3.87 | inactive |
| FXR1 (GeneID 8087) | 1 | -0.151 | 1.91 | inactive |
| FXR1 (GeneID 8087) | 2 | -1.36 | -6.58 | inactive |
| FXR1 (GeneID 8087) | 3 | -0.764 | -2.41 | inactive |
| NRARP (GeneID 441478) | 1 | -0.276 | 1.02 | inactive |
| NRARP (GeneID 441478) | 2 | -0.586 | -1.15 | inactive |
| NRARP (GeneID 441478) | 3 | -0.372 | 0.349 | inactive |
| SCAP (GeneID 22937) | 1 | -0.844 | -2.97 | inactive |
| SCAP (GeneID 22937) | 2 | 5.59 | 42.3 | active |
| SCAP (GeneID 22937) | 3 | -0.651 | -1.62 | inactive |
| ACOT12 (GeneID 134526) | 1 | -0.316 | 0.741 | inactive |
| ACOT12 (GeneID 134526) | 2 | 2.82 | 22.8 | inactive |
| ACOT12 (GeneID 134526) | 3 | -0.282 | 0.985 | inactive |
| SPC24 (GeneID 147841) | 1 | 0.607 | 7.24 | inactive |
| SPC24 (GeneID 147841) | 2 | 0.524 | 6.66 | inactive |
| SPC24 (GeneID 147841) | 3 | -0.241 | 1.27 | inactive |
| GMEB1 (GeneID 10691) | 1 | 0.283 | 4.96 | inactive |
| GMEB1 (GeneID 10691) | 2 | -0.252 | 1.19 | inactive |
| GMEB1 (GeneID 10691) | 3 | 0.133 | 3.9 | inactive |
| STT3A (GeneID 3703) | 1 | 0.621 | 7.34 | inactive |
| STT3A (GeneID 3703) | 2 | -0.57 | -1.04 | inactive |
| STT3A (GeneID 3703) | 3 | 0.133 | 3.9 | inactive |
| SCO2 (GeneID 9997) | 1 | -0.514 | -0.648 | inactive |
| SCO2 (GeneID 9997) | 2 | -0.379 | 0.299 | inactive |
| SCO2 (GeneID 9997) | 3 | -0.242 | 1.27 | inactive |
